Data as given in publication PMC10716047.

T1: SMC1A (structural maintenance of chromosomes protein 1A) (human (endogenous in HCT-116 and DLD-1)) (UniProt Q14683)
T1 sequence: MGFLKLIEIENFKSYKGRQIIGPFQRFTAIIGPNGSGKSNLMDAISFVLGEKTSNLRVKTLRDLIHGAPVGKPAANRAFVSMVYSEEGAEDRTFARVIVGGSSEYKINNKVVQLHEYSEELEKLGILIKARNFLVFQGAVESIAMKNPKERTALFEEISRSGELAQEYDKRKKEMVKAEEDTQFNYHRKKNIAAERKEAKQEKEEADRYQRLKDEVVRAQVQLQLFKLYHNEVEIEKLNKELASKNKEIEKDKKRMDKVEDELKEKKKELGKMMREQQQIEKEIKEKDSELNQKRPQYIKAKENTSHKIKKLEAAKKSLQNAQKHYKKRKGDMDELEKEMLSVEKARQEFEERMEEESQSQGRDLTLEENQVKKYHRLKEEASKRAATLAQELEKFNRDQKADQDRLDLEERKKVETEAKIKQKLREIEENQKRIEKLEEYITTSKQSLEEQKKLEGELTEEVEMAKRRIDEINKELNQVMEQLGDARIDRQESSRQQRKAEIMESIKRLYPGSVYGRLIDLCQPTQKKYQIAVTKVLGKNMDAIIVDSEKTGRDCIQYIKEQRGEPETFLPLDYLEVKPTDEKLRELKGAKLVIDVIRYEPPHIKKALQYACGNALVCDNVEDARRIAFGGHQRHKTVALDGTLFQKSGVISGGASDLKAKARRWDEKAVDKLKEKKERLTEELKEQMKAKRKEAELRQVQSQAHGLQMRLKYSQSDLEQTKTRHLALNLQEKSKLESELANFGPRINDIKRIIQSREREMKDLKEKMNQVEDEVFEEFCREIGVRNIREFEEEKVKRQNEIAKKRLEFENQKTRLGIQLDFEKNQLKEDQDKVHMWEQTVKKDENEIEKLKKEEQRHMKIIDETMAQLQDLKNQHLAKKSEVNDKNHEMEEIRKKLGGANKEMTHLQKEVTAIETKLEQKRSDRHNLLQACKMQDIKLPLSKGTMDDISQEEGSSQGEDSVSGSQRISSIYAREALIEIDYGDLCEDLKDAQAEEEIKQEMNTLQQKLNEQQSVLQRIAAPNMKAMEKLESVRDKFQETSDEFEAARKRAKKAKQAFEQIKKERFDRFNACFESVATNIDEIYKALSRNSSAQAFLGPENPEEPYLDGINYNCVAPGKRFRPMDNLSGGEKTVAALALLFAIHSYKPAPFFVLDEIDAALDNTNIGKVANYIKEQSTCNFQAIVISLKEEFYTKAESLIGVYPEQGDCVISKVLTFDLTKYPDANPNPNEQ

B1: HA-tagged SMC1A truncation mutant S2 (amino acids 241–507) (domain or fragment, UniProt Q14683 241-507)
chain: ELASKNKEIEKDKKRMDKVEDELKEKKKELGKMMREQQQIEKEIKEKDSELNQKRPQYIKAKENTSHKIKKLEAAKKSLQNAQKHYKKRKGDMDELEKEMLSVEKARQEFEERMEEESQSQGRDLTLEENQVKKYHRLKEEASKRAATLAQELEKFNRDQKADQDRLDLEERKKVETEAKIKQKLREIEENQKRIEKLEEYITTSKQSLEEQKKLEGELTEEVEMAKRRIDEINKELNQVMEQLGDARIDRQESSRQQRKAEIMESI
B2: HA-tagged SMC1A truncation mutant S3 (amino acids 508–747) (domain or fragment, UniProt Q14683 508-747)
chain: KRLYPGSVYGRLIDLCQPTQKKYQIAVTKVLGKNMDAIIVDSEKTGRDCIQYIKEQRGEPETFLPLDYLEVKPTDEKLRELKGAKLVIDVIRYEPPHIKKALQYACGNALVCDNVEDARRIAFGGHQRHKTVALDGTLFQKSGVISGGASDLKAKARRWDEKAVDKLKEKKERLTEELKEQMKAKRKEAELRQVQSQAHGLQMRLKYSQSDLEQTKTRHLALNLQEKSKLESELANFGPR
B3: HA-tagged SMC1A truncation mutant S1 (amino acids 1–240) (domain or fragment, UniProt Q14683 1-240)
chain: MGFLKLIEIENFKSYKGRQIIGPFQRFTAIIGPNGSGKSNLMDAISFVLGEKTSNLRVKTLRDLIHGAPVGKPAANRAFVSMVYSEEGAEDRTFARVIVGGSSEYKINNKVVQLHEYSEELEKLGILIKARNFLVFQGAVESIAMKNPKERTALFEEISRSGELAQEYDKRKKEMVKAEEDTQFNYHRKKNIAAERKEAKQEKEEADRYQRLKDEVVRAQVQLQLFKLYHNEVEIEKLNK
B4: HA-tagged SMC1A truncation mutant S4 (amino acids 748–1,013) (domain or fragment, UniProt Q14683 748-1013)
chain: INDIKRIIQSREREMKDLKEKMNQVEDEVFEEFCREIGVRNIREFEEEKVKRQNEIAKKRLEFENQKTRLGIQLDFEKNQLKEDQDKVHMWEQTVKKDENEIEKLKKEEQRHMKIIDETMAQLQDLKNQHLAKKSEVNDKNHEMEEIRKKLGGANKEMTHLQKEVTAIETKLEQKRSDRHNLLQACKMQDIKLPLSKGTMDDISQEEGSSQGEDSVSGSQRISSIYAREALIEIDYGDLCEDLKDAQAEEEIKQEMNTLQQKLNEQ
B5: HA-tagged SMC1A truncation mutant S5 (amino acids 1,013–1,233) (domain or fragment, UniProt Q14683 1013-1233)
chain: QQSVLQRIAAPNMKAMEKLESVRDKFQETSDEFEAARKRAKKAKQAFEQIKKERFDRFNACFESVATNIDEIYKALSRNSSAQAFLGPENPEEPYLDGINYNCVAPGKRFRPMDNLSGGEKTVAALALLFAIHSYKPAPFFVLDEIDAALDNTNIGKVANYIKEQSTCNFQAIVISLKEEFYTKAESLIGVYPEQGDCVISKVLTFDLTKYPDANPNPNEQ

Molecular target: FLAG-tagged wild-type SMIMP (human)
Experiment: co-IP; HEK293FT cells cotransfected with HA-tagged SMC1A (wild type or truncation) and FLAG-tagged SMIMP (wild type or deletion mutant), lysates immunoprecipitated with anti-FLAG antibody, immunoblot

Row | binding | Molecule
1 | no binding | B1
2 | no binding | B2
3 | binds | B3
4 | no binding | B4
5 | binds | B5

Molecular target: T1, SMC1A (structural maintenance of chromosomes protein 1A) (human (endogenous in HCT-116 and DLD-1))
Experiment: co-IP; whole-cell lysates of HCT-116 and DLD-1 cells stably expressing SMIMP–FLAG, immunoprecipitated with anti-SMC1A antibody (mouse IgG as control), blot with anti-FLAG

Row | binding | Molecule
6 | binds | FLAG-tagged SMIMP (SMC1A-interacting microprotein, encoded by the lncRNA ELFN1-AS1) (human)

These are yes or no findings as the source states them, for the method shown. Binding seen in cells or lysates may run through a third protein. Binding calls can cover weak binding; strength is not graded here. For part of these data: Sequences can lack the tags named with a protein.
